Residue numbers refer to the chain shown, from its start. These are yes or no findings as the source states them, for the method shown. Some binding calls cover weakened binding; strength is not graded here. Each block holds one binder with its values, some of them ahead of it.
Assays:
[1] = molecular target: human TL1A (HuTL1A) (human) (UniProt O95150); assay: ELISA: biotin-HuTL1A on streptavidin plate, antibody diluted at pH 5.8, HRP-anti-human Fc, OD450
[2] = molecular target: human TL1A (HuTL1A) (human) (UniProt O95150); assay: ELISA, biotin-HuTL1A on streptavidin, pH 7.4, 5.8, 5.6
[3] = molecular target: human TL1A (HuTL1A) (human) (UniProt O95150); assay: ELISA: biotin-HuTL1A on streptavidin plate, antibody diluted at pH 7.4, HRP-anti-human Fc, OD450
[4] = molecular target: human TL1A (HuTL1A) (human) (UniProt O95150); assay: competition ELISA: antibody dilution mixed 1:1 with Biotin-TL1A, added to coated DcR3 (1 µg/mL), Streptavidin-HRP, OD450; blocked partner of TL1A: DcR3
[5] = molecular target: human TL1A (HuTL1A) (human) (UniProt O95150); assay: ELISA: biotin-HuTL1A on streptavidin plate, antibody diluted at pH 5.6, HRP-anti-human Fc, OD450
[6] = molecular target: human TL1A (HuTL1A) (human) (UniProt O95150); assay: negative staining electron microscopy, 2D average analysis
[7] = molecular target: human TL1A (HuTL1A) (human) (UniProt O95150); assay: SEC of an equimolar mixture of HuTL1A and antibody (60 µM, 30 min at room temperature)
[8] = molecular target: human TL1A (HuTL1A) (human) (UniProt O95150); assay: negative staining electron microscopy
[9] = molecular target: human TL1A (HuTL1A) (human) (UniProt O95150); assay: SEC of Fab:antigen mixtures at different ratios
[10] = molecular target: human TL1A (HuTL1A) (human) (UniProt O95150); assay: SEC of M701-4007 Fab : HuTL1A mixtures at ratios 0.5:1, 2:1, 3:1 and 6:1, with Fab alone and HuTL1A alone

Chains of the proteins cited; added tags and fusions are not shown. Lines headed by an entry give the natural chain unless they say otherwise; changes in a name come on top.
UniProt O95150: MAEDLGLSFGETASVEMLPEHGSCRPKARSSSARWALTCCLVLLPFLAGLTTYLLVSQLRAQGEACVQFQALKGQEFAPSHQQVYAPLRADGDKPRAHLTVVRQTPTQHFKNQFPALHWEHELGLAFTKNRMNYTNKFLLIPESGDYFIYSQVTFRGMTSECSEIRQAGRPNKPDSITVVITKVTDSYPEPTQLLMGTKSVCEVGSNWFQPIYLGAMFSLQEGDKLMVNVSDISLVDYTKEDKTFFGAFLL

- binding [1]: binds
- binding [2]: binds
- binding [3]: binds
- binding [4]: binds
- binding [5]: binds
B1: M701-3966 (antibody, human IgG1, kappa, L234A L235A, V domains shown)
VH: ELQLQESGPGLVKPSETLSLTCAVSGVSFSDYHWAWIRQPPGKGLEWIGDINHRGHTNYNPSLKSRVTVSIDTSKNQFSLKLSSVTAADTAVYFCARDFPNFIFDYWGQGTLVTVSS
VL: DIQLTQSPGTLSLSPGERATLSCRASQSVSSYLAWYQQKPGQAPRLLIYGASKRATGIPDRFSGSGSGTDFTLTISRLEPEDFAVYYCQQYGDSPLTFGQGTKVEIKR

- binding [1]: binds
- binding [2]: binds
- binding [6]: binds
- binding [7]: binds
- binding [8]: binds
- binding [3]: binds
- binding [4]: binds
- binding [5]: binds
B2: M701-4007 (antibody, human IgG1, kappa, L234A L235A, V domains shown)
VH: B1 VH with Y106F
VL: B1 VL with S31T

- binding [9]: binds
- binding [10]: binds
B3: M701-4007 Fab (Fab, V domains shown)
VH: B1 VH with Y106F
VL: DIQLTQSPGTLSLSPGERATLSCRASQSVSTYLAWYQQKPGQAPRLLIYGASKRATGIPDRFSGSGSGTDFTLTISRLEPEDFAVYYCQQYGDSPLTFGQGTKVEIK

- binding [4]: binds
B4: M701-4019 (antibody, human IgG1, kappa, L234A L235A, V domains shown)
VH: B1 VH with S30T, F94Y, F99Y, F104Y
VL: B1 VL with S31N, K53R, D60A, R77S, G92A, D93A
